Molecular target: T1, Squalene synthase (Rattus norvegicus, UniProt Q02769)
T1 sequence (Q02769 whole entry): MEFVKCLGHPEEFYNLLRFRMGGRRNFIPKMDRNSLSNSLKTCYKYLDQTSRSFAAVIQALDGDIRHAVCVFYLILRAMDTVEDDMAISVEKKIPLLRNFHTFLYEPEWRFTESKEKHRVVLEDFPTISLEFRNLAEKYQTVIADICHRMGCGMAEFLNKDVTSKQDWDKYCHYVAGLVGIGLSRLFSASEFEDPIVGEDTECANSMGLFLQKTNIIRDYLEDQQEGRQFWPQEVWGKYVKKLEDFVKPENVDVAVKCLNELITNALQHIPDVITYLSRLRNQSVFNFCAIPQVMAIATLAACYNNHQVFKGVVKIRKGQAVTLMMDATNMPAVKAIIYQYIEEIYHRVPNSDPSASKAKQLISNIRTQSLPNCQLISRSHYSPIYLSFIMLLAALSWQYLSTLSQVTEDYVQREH
Assay: Inhibition of rat liver squalene synthase(SQS)

In the case of `C=C(CC[C@]12O[C@H](C(=O)O)[C@@](O)(C(=O)O)[C@](C(=O)O)(O1)[C@H](O)[C@H]2O)[C@@H](OC(C)=O)[C@H](C)Cc1ccccc1`, the IC50 is reported as 6 nM.
